Measured values: the supplement of paper PMC9877034
Counter-ions that a name gives are not always drawn. Whole data set: some 1,000 compounds, median “cFRET/donor change relative to DMSO, normalised to beta-lapachone positive control (supercomplex I-IV assembly)” near 0.18, cut for the lowest 2% near -1. This is one part of the list.

Tested on: C2C12 (NDUFB8-AcGFP / COX8A-DsRed-Monomer FRET reporter)
Assay: cFRET/donor change relative to DMSO, normalised to beta-lapachone positive control (supercomplex I-IV assembly) (fraction of beta-lapachone effect); higher = more respiratory supercomplex assembly
Conditions: 40 µM; 24 h
Description: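 Cells were treated with 40 uM compound for 24 h and imaged on an IN Cell Analyzer 6000. Corrected FRET was divided by donor signal (cFRET/donor) and measured in two replicate experiments. The score is (mean cFRET/donor of compound - mean DMSO) / (mean beta-lapachone 40 uM - mean DMSO). Compounds flagged for prominent cell death, abnormal morphology or decreased cell number were excluded.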

Structure (SMILES) | cFRET/donor change
CCN1C[C@]2(COC)[C@H](O)C[C@H](OC)[C@@]34[C@@H]5C[C@@]6(O)[C@H](OC(=O)c7ccccc7)[C@@H]5[C@@](OC(C)=O)([C@@H]([C@H](OC)[C@H]23)[C@@H]14)[C@@H](O)[C@@H]6OC [Aconitine] | 0.141
CNc1ccc2oc(C[C@H]3O[C@@]4(CC[C@H]3C)O[C@H]([C@H](C)C(=O)c3ccc[nH]3)[C@H](C)C[C@H]4C)nc2c1C(=O)O [Calcimycin] | 0.519
c1ccc2c(c1)[I+]c1ccccc1-2 [Diphenyleneiodonium chloride] | 1.64
CC(N)Cc1cccc(C(F)(F)F)c1 (single isomer, unassigned; (+)) [(+)-Norfenfluramine hydrochloride] | 0.526
N#CCCN [3-Aminopropionitrile fumarate] | -0.197
Oc1ccc2c3c1O[C@H]1c4oc5ccccc5c4C[C@@]4(O)[C@@H](C2)N(CC2CC2)CC[C@]314 [Naltriben methanesulfonate] | 0.549
NC(=O)CN1CCCC1=O [Piracetam] | 0.148
NCc1cc(O)no1 [Muscimol hydrobromide] | 0.157
CC(=O)NBr [N-Bromoacetamide] | 0.0538
Cc1c2ccncc2c(C)c2c1[nH]c1ccccc12 [Ellipticine] | -2.44
CC(C)NP(=O)(NC(C)C)OP(=O)(NC(C)C)NC(C)C [Tetraisopropyl pyrophosphoramide] | -0.147
NCCc1c[nH]c2ccccc12 [Tryptamine hydrochloride] | -0.111
Clc1ccc(N2C[C@H]3CC[C@@H](C2)N3)nn1 | 0.151
Cc1ccc(S(=O)(=O)N[C@@H](CCCCN)C(=O)CCl)cc1 [Na-p-Tosyl-L-lysine chloromethyl ketone hydrochloride] | 0.485
CCCN1CCC[C@@H](c2cccc(O)c2)C1 [S(-)-3PPP hydrochloride] | 0.226
CCNC(=O)[C@H]1O[C@@H](n2cnc3c(N)ncnc32)[C@H](O)[C@@H]1O [5'-N-Ethylcarboxamidoadenosine] | 0.316
Cc1cccc(C)c1NC1=NCCCS1 [Xylazine hydrochloride] | 0.359
COc1cc([C@@H]2c3cc4c(cc3[C@H](O)[C@H]3COC(=O)[C@H]23)OCO4)cc(OC)c1OC [Podophyllotoxin] | 0.293
CC[C@H]1CN2CCc3cc(OC)c(OC)cc3[C@@H]2C[C@@H]1C[C@H]1NCCc2cc(OC)c(OC)cc21 [Emetine dihydrochloride hydrate] | 0.344

Molecules listed so far that contain an aryl methoxy group (2):
Structure (SMILES) | cFRET/donor change
COc1cc([C@@H]2c3cc4c(cc3[C@H](O)[C@H]3COC(=O)[C@H]23)OCO4)cc(OC)c1OC [Podophyllotoxin] | 0.293
CC[C@H]1CN2CCc3cc(OC)c(OC)cc3[C@@H]2C[C@@H]1C[C@H]1NCCc2cc(OC)c(OC)cc21 [Emetine dihydrochloride hydrate] | 0.344

(cont.)

Structure (SMILES) | cFRET/donor change
CS(=N)(=O)CC[C@H](N)C(=O)O (stereo partly drawn) [L-Methionine sulfoximine] | 0.00629
Ic1ccccc1CNC1C2CCN(CC2)C1C(c1ccccc1)c1ccccc1 [L-703,606 oxalate salt hydrate] | 0.361
CCCN(CCC)CCc1ccc(O)c(O)c1 [Dipropyldopamine hydrobromide] | 0.341
NCCc1c[nH]c2ccc(O)cc12 [Serotonin hydrochloride] | -0.0728
C[C@@]12N[C@@H](Cc3ccccc31)c1ccccc12 [(-)-MK-801 hydrogen maleate] | -0.159
C#CCN[C@H](C)Cc1ccccc1 [R-(-)-Desmethyldeprenyl hydrochloride] | -0.331
CCCN(CCC)[C@@H]1CCc2cccc(O)c2C1 [R-(+)-8-Hydroxy-DPAT hydrobromide] | 0.296
CCCN1CCc2cc(O)cc3c2[C@H]1Cc1ccc(O)c(O)c1-3 [R(-)-2,10,11-Trihydroxy-N-propylnoraporphine hydrobromide] | 0.899
CC1(C(=O)O)C2CCC(O2)C1(C)C(=O)O (configuration not stated) [Cantharidic Acid] | -0.0828
CC(C)(C)NCC(O)c1ccccc1Cl (configuration not stated) [Tulobuterol hydrochloride] | 0.316
C#CCOC(=O)C1=CCCN(C)C1 [Arecaidine propargyl ester hydrobromide] | 0.0559
CN1[C@@H]2CC[C@H]1C[C@@H](OC(=O)C(CO)c1ccccc1)C2 (some centres not stated) [Atropine sulfate] | 0.0958
c1ccc(CCCN2CCN(CCOC(c3ccccc3)c3ccccc3)CC2)cc1 | 1.23
COc1cc(C(O)CN)ccc1O (racemic) [(±)-Normetanephrine hydrochloride] | 0.233
CN1[C@@H]2CC[C@H]1C[C@@H](OC(c1ccccc1)c1ccccc1N)C2 (some centres not stated) [Aminobenztropine] | 0.541
NCC(CP(=O)(O)O)c1ccc(Cl)cc1 (configuration not stated) [Phaclofen] | -0.117
COc1ccc(C(CN(C)C)C2(O)CCCCC2)cc1 (configuration not stated) [Venlafaxine hydrochloride] | 0.377
CN(C)C(=O)Oc1cccc([N+](C)(C)C)c1 [Neostigmine bromide] | 0.0153
